# Reference: US9493833B1, “Methods for preventing induced synthesis of proteasomes in human cells” (THE REGENTS OF THE UNIVERSITY OF CALIFORNIA, priority 2009, dated 2016)
# The chains behind the UniProt entries cited, without tags or fusion partners. Where a name states a change or a piece, a line headed by the entry shows the natural chain unless it says otherwise.
# UniProt P20618: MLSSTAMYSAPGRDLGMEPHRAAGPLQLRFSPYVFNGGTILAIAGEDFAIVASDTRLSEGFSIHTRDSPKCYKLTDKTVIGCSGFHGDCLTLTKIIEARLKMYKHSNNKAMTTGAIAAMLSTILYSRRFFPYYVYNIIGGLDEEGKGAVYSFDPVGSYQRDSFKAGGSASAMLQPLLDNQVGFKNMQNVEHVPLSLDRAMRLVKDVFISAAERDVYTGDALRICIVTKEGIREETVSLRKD
# UniProt P28074: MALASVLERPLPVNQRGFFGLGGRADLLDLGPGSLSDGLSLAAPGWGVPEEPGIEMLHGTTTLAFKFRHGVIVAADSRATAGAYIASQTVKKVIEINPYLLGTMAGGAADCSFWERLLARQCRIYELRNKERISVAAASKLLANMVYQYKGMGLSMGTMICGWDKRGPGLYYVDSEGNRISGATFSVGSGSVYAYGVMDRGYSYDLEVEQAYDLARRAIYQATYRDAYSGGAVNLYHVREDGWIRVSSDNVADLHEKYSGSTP
# Some of these results come from one statement about several compounds together. For at least one compound, name, drawing or mass did not settle the structure.
# Molecular target: T1, proteasome (chymotryptic site) (Homo sapiens, UniProt P20618+P28074)
# T1 construct: endogenous in cells; host or cells: HT29 human colon cancer cells, treated intact; activity measured in freeze-thaw lysate
# Assay: Proteasome activity recovery assay in HT29 cells after drug wash-out
# Format: cell-based
# Conditions: HT29, 1 hr; MG132 2 μM, YU101 100 nM, Bortezomib 40 nM
# Description: Cells were frozen at different time points as indicated and were used for proteasome activity assays as described herein. For each time point, the results are normalized to DMSO-treated control in the case of hatched lines and to CHX-treated control in the case of solid lines. Error bars denote SD (n=3). […] The results were normalized to DMSO-treated control for each cell type. Error bars denote S.E.M. (n=2). […] The next day, the cells were treated with indicated concentrations of YU101 and the pan-caspase inhibitor Z-VAD-FMK, and further incubated for 72 hrs. The cell viability was then assessed using the CellTiter-Glo method (FIG. 12A). The results were normalized to DMSO-treated control which was set to 100% in each case. Error bars denote S.E.M. (n=2). […] The cell lysates were used for immunoblotting to detect the levels of Nrf1 (with the antibody raised against N-terminus) and cleaved caspase-3. β-actin protein levels were used as loading control. […] The cells were then washed with PBS thrice and allowed to recover in fresh medium. At definite time points, the cells were freeze-thawed in TE buffer (20 mM Tris pH 8, 5 mM EDTA) and subsequently used for measuring proteasome activity as described previously (Demo et al., 2007).
smiles,measurement,value
CC(=O)NC(CCc1ccccc1)C(=O)NC(CC(C)C)C(=O)NC(Cc1ccccc1)C(=O)NC(CC(C)C)C(=O)C1(C)CO1 (stereo not shown) [YU101],inhibition of the chymotryptic site,80-90%
